{
  "source": "ChEMBL document CHEMBL2429826",
  "about": "“Design, synthesis, and evaluation of prodrugs of ertapenem” (ACS Med Chem Lett, 2013)",
  "assay": "Apparent permeability of the compound in pig LLC-PK1 cells",
  "data": [
    {"smiles": "C[C@@H](O)[C@H]1C(=O)N2C(C(=O)OCOC(=O)C(C)(C)C)=C(SC3CN(C4=NCCS4)C3)[C@H](C)[C@H]12", "note": "[TEBIPENEM PIVOXIL]", "values": [
      {"measurement": "Papp", "result": 10.1, "unit": "×10⁻⁶ cm/s"}
    ]}
  ]
}
